Laboratory results taken from patent US20250090996A1, “ACID GAS REMOVAL METHOD, ACID GAS ABSORBENT, AND ACID GAS REMOVAL APPARATUS” (KABUSHIKI KAISHA TOSHIBA, priority 2023, published 2025).
Some entries repeat one wording, which the source may state once for all of them.

How the values were obtained:
[1] = Carbon dioxide absorption by bubbling CO2:N2=1:9 gas into amine/water mixture; details: 20 g of mixture with water 50:50; CO2:N2=1:9 bubbled at 0.5 L/min; 25° C., atmospheric pressure
Procedure: Hereinafter, Examples of the embodiment will be described. In the following Examples, conditions before heating the acid gas absorbent were 25° C. and atmospheric pressure.
(§1) When a compound (a-1) of General Formula (a) wherein R^1 and R^3 are 1-ethylpropyl groups and R^2 is C3 linear alkyl and water were blended at a mass ratio of 50:50, two phases of an organic phase (amine compound phase) as an upper phase and an aqueous phase as a lower phase were formed. […] The temperature in the column was changed in a range of 60° C. to 70° C., and an inert gas was caused to flow at 50 ml/min. […] Here, the amount of carbon dioxide saturated and absorbed is a value obtained by measuring the amount of inorganic carbon in the acid gas absorbent with an infrared gas concentration measuring apparatus. The amount of this compound dissolved was 18,000 mg/L at 25° C. and under atmospheric pressure. The amount of the compound dissolved was determined by sampling the lower phase of the two phases fractionated, measuring the total organic carbon concentration with a total organic carbon meter TOC-L (trade name) manufactured by Shimadzu Corporation, and converting it into the amount of amine dissolved from the chemical formula of the compound (a-1).

[2] = Regeneration (carbon dioxide release) on heated molecular sieve 4A column; details: column 60° C. to 70° C., inert gas 50 ml/min
Procedure: as §1

| Compound | carbon dioxide absorbed for 10 minutes from the start [1] | carbon dioxide absorbed for 100 minutes from the start [1] | regeneration of mixture passed through column [2] |
| --- | --- | --- | --- |
| CC(C)CC(C)NCCCNCCCNC(C)CC(C)C (centres unmarked) [compound (b-3)] | 11 nL/kg | 56 nL/kg | released carbon dioxide and was regenerated |
| CC(C)N(C)C(C)C [diisopropylmethylamine, reference compound] | 3.6 nL/kg | 20.3 nL/kg | – |
| CCC(CC)NCCCNC(CC)CC [compound (a-1)] | 12 nL/kg | 48 nL/kg | released carbon dioxide and was regenerated |
| CC(C)CC(C)NCCCN(C)CCCNC(C)CC(C)C (centres unmarked) [compound (b-2)] | 7 nL/kg | 36 nL/kg | released carbon dioxide and was regenerated |
| CCC(CC)NCCCN(C)CCCNC(CC)CC [compound (b-1)] | 7 nL/kg | 38 nL/kg | released carbon dioxide and was regenerated |
